Reference: PMC5725709, “PufQ regulates porphyrin flux at the haem/bacteriochlorophyll branchpoint of tetrapyrrole biosynthesis via interactions with ferrochelatase” (Molecular Microbiology, 2017)

By UniProt entry, the sequences of proteins in these tests, tags left out. Where a name states a change or a piece, a line headed by the entry shows the natural chain unless it says otherwise.
UniProt Q3IYK5: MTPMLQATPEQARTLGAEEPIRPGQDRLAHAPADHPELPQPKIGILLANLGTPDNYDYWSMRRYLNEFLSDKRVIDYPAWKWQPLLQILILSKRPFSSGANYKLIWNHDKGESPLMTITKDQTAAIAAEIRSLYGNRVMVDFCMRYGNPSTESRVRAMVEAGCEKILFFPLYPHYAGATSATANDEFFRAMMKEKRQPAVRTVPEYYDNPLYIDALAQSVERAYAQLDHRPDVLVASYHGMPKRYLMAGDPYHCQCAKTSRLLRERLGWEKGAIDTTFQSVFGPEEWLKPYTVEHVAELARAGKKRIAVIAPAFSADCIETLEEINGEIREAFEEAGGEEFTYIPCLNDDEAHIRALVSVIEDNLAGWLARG
UniProt Q3J026: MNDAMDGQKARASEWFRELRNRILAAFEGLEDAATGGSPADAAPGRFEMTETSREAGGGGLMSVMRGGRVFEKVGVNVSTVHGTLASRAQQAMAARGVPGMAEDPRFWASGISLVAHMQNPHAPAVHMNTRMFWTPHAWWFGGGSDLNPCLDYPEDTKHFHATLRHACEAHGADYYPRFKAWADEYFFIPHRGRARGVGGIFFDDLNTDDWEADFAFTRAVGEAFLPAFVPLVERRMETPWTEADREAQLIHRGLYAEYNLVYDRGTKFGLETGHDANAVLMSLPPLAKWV
UniProt P33770: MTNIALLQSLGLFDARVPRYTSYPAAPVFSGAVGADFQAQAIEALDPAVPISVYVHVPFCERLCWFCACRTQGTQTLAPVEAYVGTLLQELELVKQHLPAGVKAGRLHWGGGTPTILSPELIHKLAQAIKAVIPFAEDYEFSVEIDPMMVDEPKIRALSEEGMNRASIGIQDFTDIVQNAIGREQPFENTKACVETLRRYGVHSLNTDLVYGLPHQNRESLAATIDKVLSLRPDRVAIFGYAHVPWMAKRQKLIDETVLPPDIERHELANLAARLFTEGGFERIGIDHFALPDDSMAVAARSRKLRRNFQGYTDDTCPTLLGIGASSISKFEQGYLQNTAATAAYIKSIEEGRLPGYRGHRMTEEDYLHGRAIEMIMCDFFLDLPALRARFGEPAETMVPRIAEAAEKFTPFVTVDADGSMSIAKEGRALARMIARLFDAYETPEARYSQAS
UniProt Q3J2T7: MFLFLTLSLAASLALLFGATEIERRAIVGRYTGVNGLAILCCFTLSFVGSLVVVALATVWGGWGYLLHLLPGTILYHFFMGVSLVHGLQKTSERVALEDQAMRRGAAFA

Key:
[1] = target: FLAG-tagged ferrochelatase (N-terminal 3x FLAG-tag on FeCH) (Rhodobacter sphaeroides) (UniProt Q3IYK5); assay: affinity purification with mass spectrometry; FLAG immunoprecipitation of β-DDM-solubilised FLAG-FeCH lysates (cells grown oxygen-limited or aerobically) on anti-FLAG M2 resin; eluates digested in solution with trypsin, peptides analysed by mass spectrometry
[2] = target: FLAG-tagged ferrochelatase (N-terminal 3x FLAG-tag on FeCH) (Rhodobacter sphaeroides) (UniProt Q3IYK5); assay: affinity purification with mass spectrometry; FLAG immunoprecipitation of β-DDM-solubilised lysates of oxygen-limited cells on anti-FLAG M2 affinity resin, washed with 0.04% β-DDM, eluted with FLAG peptide; eluates on SDS-PAGE (Coomassie, anti-FLAG immunoblot), bands excised, in-gel tryptic digestion, nanoLC-MS/MS

binding [1] | binding [2] | Substance
binds |  | HemF (aerobic coproporphyrinogen oxidase) (from UniProt Q3J026) (enzyme)
binds |  | HemN (anaerobic coproporphyrinogen oxidase) (from UniProt P33770) (enzyme)
 | binds | protein product of the RSP_6067 gene (from UniProt Q3J2T7)

These are yes or no findings as the source states them, for the method shown. In cells and extracts the contact can be indirect. These calls come from enrichment with a bait or labelling near it, and not all partners need be listed.
